Data set [1] addresses p53 wild-type (Homo sapiens) (UniProt P04637). In words: pull-down.
Data set [2] has the same target. Briefly: activity in cells. The conditions noted are these: protein in cells, only the site is given.
Where [3] appears, read: protein in a lysate after overexpression, protein details: vaccinia-expressed lysate (HeLa or BSC40), label: 32P, variant of fragment A (772 CBE, subclone 10d).

For some of these results: Results from cells or extracts need not show a direct contact. For some of these results: A weaker result is weaker than the reference pair of the same experiment. Construct, isoform or probe ends are uncertain for at least one entry. For some of these results: No signal at the amounts used counts as a negative.

With “AATACGACTCACTATAGGGCGAATTGGGTACCGGGCCCCCCCTCGAGGTCGACGGTATCGATAAGCTTGATATTCTCCCCAGATGTAGTGAAAGCAGGTAGATTGCCTTGCCTGGACTTGCCTGGCCTTGCCTTTTCTTTC (double strand) [fragment A subfragment 4]”, the binding result in data set [1] (setting [3]) was “binds”.

Turning to “AATACGACTCACTATAGGGCGAATTGGGTACCGGGCCCCCCCTCGAGGTCGACGGTATCGATAAGCTTGATATTCTCCCCAGATGTAGTGAAAGCAGGTAGATTGCCTTGCCTGGACTTGCCTGGCCTTGCCTTTTCTTTCTTTCTTTCTTTCTTTATTACTTTCTCTTTTTCTTCTTCTTCTTCTTCTTCTTCTTCTTCTTCTTCTTCTTCTTCTTCTTCTTCTTCTTCTTTTTTTTTTGAGACAGAGTTTCACTCTTGTTGCCCAGGCTAGAGGGCAATGGCGCGATCTCGGCTCACCGCACCCTCCGCCTCCCAGGTTCAAGCGATTGGGGGATCCACTAGTTCTAGAGCGGCCGCCACCGCGGTGGAGCTCCAGCTTTTGTTCCCTTTAGTGAGGGTTAAT (double strand) [fragment A (772 CBE, subclone 10d)]”, the binding result in data set [1] (immunoprecipitation, 100 mM NaCl, 5 mM EDTA, 4 C, protein in a lysate after overexpression, protein details: vaccinia-expressed lysate (HeLa or BSC40), label: 32P) is “binds”; in data set [1] (immunoprecipitation, 4 C, poly dI-dC, purified recombinant protein, protein details: baculovirus-produced, affinity-purified, label: 32P) it was “binds”. In the case of “AGTGAAAGCAGGTAGATTGCCTTGCCTGGACTTGCCTGGCCTTGCCTTTTCTTTC (double strand) [fragment A subfragment 5]”, in data set [1] (setting [3]), the binding result is recorded as “binds”. Take “CCTGCCTGGACTTGCCTGG (double strand) [PG concatemer (PGn; repeat unit listed)]”: in data set [2] (PG13-CAT in HCT 116, Exp. 1), the activity on this sequence (relative CAT activity) came out at 100. Also, the binding result in data set [1] (PG16, co-translated R175H at 3:1 inhibits binding by over 90%, protein translated in vitro, protein details: rabbit reticulocyte lysate) is “binds”; in data set [1] (binding increases with repeat number, purified recombinant protein, protein details: baculovirus-produced, affinity-purified), “binds”. “CCTTAATGGACTTTAATGG (double strand) [MG concatemer (MG15; repeat unit listed)]”: the activity on this sequence (relative CAT activity) in data set [2] (MG15-CAT in HCT 116, Exp. 2, variant of PG concatemer (PGn, repeat unit listed)) is < 1. For the same sequence, in data set [1] (MG15, protein translated in vitro, protein details: rabbit reticulocyte lysate, variant of PG concatemer (PGn, repeat unit listed)), the binding result is reported as “no binding”. Take “CCTTGCCTGGACTTGCCTGGCCTTGCCTTTTCT (double strand) [fragment A subfragment 6]”: in data set [1] (33 bp insert with three TGCCT repeats suffices, protein in a lysate after overexpression, protein details: vaccinia-expressed lysate (HeLa or BSC40), label: …, variant of fragment A (772 CBE, subclone 10d)), the binding result was “binds”. With “CCTTGCCTGGACTTGCCTGGCCTTGCCTTTTCTTTCTTTCTTTCTTTCTTTATTACTTTCTCTTTTTCTTCTTCTTCTTCTTCTTCTTCTTCTTCTTCTTCTTCTTCTTCTTCTTCTTCTTCTTCTTTTTTTTTTGAGACAGAGTTTCACTCTTGTTGCCCAGGCTAGAGGGCAATGGCGCGATCTCGG (double strand) [fragment A subfragment 3]”, in data set [1] (setting [3]), the binding result was “binds”. As to “CCTTGCCTTTTCTTTCTTTCTTTCTTTCTTTATTACTTTCTCTTTTTCTTCTTCTTCTTCTTCTTCTTCTTCTTCTTCTTCTTCTTCTTCTTCTTCTTCTTCTTCTTTTTTTTTTGAGACAGAGTTTCACTCTTGTTGCCCAGGCTAGAGGGCAATGGCGCGATCTCGG (double strand) [subfragment 3a (HaeIII-digested subfragment 3)]”, in data set [1] (binding greatly reduced, protein in a lysate after overexpression, protein details: vaccinia-expressed lysate (HeLa or BSC40), label: 32P, variant of fragment A subfragment 3), the binding result was “binds more weakly”. For the sequence “TGCTCTCTTGCTTGCTACCATGTAAGACATGCCTGTGCTCCTCTTTTGCCTTCTGCCATGATTGTGAGACCTCCCCAGCCATGTGGAACTGTGAG (double strand) [fragment B subfragment 8]”, the binding result in data set [1] (protein in a lysate after overexpression, protein details: vaccinia-expressed lysate (HeLa or BSC40), label: 32P, variant of fragment B (Lambda 5R, subclone 8a)) is on record as “binds”.

These data come from patent publication US20020164595.
